Results: publication PMC11111408, “Concurrent inhibition of oncogenic and wild-type RAS-GTP for cancer therapy” (Nature, 2024)
Several values for one entry are separate records, joined by “and”; a condition that tells them apart may be missing. Equal values may be shown once. Further values from the same series stand in other lists.

Test: Body weight and tolerability of tumour bearing mice

Question: With `CCn1c(-c2cc(N3CCN(C4CC4)CC3)cnc2[C@H](C)OC)c2c3cc(ccc31)-c1csc(n1)C[C@H](NC(=O)[C@H]1[C@@H]3COC[C@@H]31)C(=O)N1CCC[C@H](N1)C(=O)OCC(C)(C)C2` [RMC-7977] as the molecule, how does the “% Body Weight Change” value (MIA PaCa-2 tumor bearing BALB/c nude mice, 10 mg/kg po qd, day 17, individual animals, 10 mg/kg) read?
Answer: The value was -4.699% and 4.336% and 0.2634% and 1.339% and -7.403% and -0.7127% and -4.535% and -0.9829% and -2.915% and -3.101%.

Question: What about the “% Body Weight Change” value (MIA PaCa-2 tumor bearing BALB/c nude mice, 10 mg/kg po qd, day 21, individual animals, 10 mg/kg) of the same molecule?
Answer: Its value is -0.7519% and 6.9% and 2.809% and 0.4975% and -6.73% and -0.2227% and -2.994% and -1.529% and -0.9442% and -2.978%.

Question: What about the “% Body Weight Change” value (MIA PaCa-2 tumor bearing BALB/c nude mice, 10 mg/kg po qd, day 24, individual animals, 10 mg/kg) of the same molecule?
Answer: Its value is -2.726% and -3.45% and 1.536% and 0.9568% and -7.799% and -2.539% and 6.649% and -0.8009% and -10.7143% and -5.59%.

Question: What about the “% Body Weight Change” value (MIA PaCa-2 tumor bearing BALB/c nude mice, 10 mg/kg po qd, day 28, individual animals, 10 mg/kg) of the same molecule?
Answer: The value was -2.068% and 3.403% and 3.161% and 1.339% and -6.334% and 0.5791% and -1.145% and -0.7645% and 0.2463% and -0.4488%.

Question: What about the “% Body Weight Change” value (NCI-H441 tumor bearing BALB/c nude mice, 10 mg/kg po qd, day 0, individual animals) of the same molecule?
Answer: The value was 0%.

Question: And the “% Body Weight Change” value (NCI-H2009, RMC-7977 10 mg/kg po qd, day 0 on study, individual animals)?
Answer: Its value is 0.00%.

Question: What about the “% Body Weight Change” value (NCI-H2009, RMC-7977 10 mg/kg po qd, day 3 on study, individual animals, 10 mg/kg) of the same molecule?
Answer: The value was 2.42% and -3.77% and -4.57% and -3.57% and -1.34% and -6.11% and -2.27% and -2.71% and -7.69% and -7.29%.

Question: And the “% Body Weight Change” value (NCI-H2009, RMC-7977 10 mg/kg po qd, day 7 on study, individual animals, 10 mg/kg)?
Answer: Its value is 5.31% and -3.77% and -1.37% and -4.02% and -2.68% and -5.24% and -0.45% and -4.52% and -8.97% and -5.26%.

Question: What about the “% Body Weight Change” value (NCI-H2009, RMC-7977 10 mg/kg po qd, day 10 on study, individual animals, 10 mg/kg) of the same molecule?
Answer: The value was 5.31% and -1.89% and -5.48% and -3.13% and -3.57% and -5.24% and -4.55% and -2.71% and -7.26% and -7.29%.

Question: And the “% Body Weight Change” value (NCI-H2009, RMC-7977 10 mg/kg po qd, day 14 on study, individual animals, 10 mg/kg)?
Answer: The value was 3.38% and -1.42% and -0.91% and -0.45% and 0.45% and -3.06% and -3.18% and -1.36% and -1.71% and -6.88%.

Question: What about the “% Body Weight Change” value (NCI-H2009, RMC-7977 10 mg/kg po qd, day 17 on study, individual animals, 10 mg/kg) of the same molecule?
Answer: Its value is 2.90% and 1.42% and 0.46% and 0.00% (2×) and -0.45% (2×) and -3.93% and 1.81% and -5.67%.

Question: What about the “% Body Weight Change” value (NCI-H2009, RMC-7977 10 mg/kg po qd, day 21 on study, individual animals, 10 mg/kg) of the same molecule?
Answer: The value was 4.35% and 0.94% and -1.37% and 2.23% and 0.45% and -2.62% and 0.00% and 0.90% and 0.43% and -3.64%.

Question: What about the “% Body Weight Change” value (NCI-H2009, RMC-7977 10 mg/kg po qd, day 24 on study, individual animals, 10 mg/kg) of the same molecule?
Answer: The value was 4.35% and -1.89% and -3.20% and 0.00% (3×) and -1.79% and -3.06% and -0.85% and -4.45%.

Question: And the “% Body Weight Change” value (NCI-H2009, RMC-7977 10 mg/kg po qd, day 28 on study, individual animals, 10 mg/kg)?
Answer: The value was 0.97% and 0.00% (2×) and 1.34% and -1.34% and -1.75% and 1.82% and 0.90% and 2.56% and -6.88%.

Question: And the “% Body Weight Change” value (PDAC G12D tumor bearing BALB/c nude mice, 10 mg/kg po qd, day 28, individual animals, 10 mg/kg)?
Answer: The value was 0.00% (2×) and 4.17% and 17.39%.

Question: And the “% Body Weight Change” value (PSN-1 tumor bearing BALB/c nude mice, 10 mg/kg po qd, day 0, individual animals)?
Answer: The value was 0%.

Question: What about the “% Body Weight Change” value (PSN-1 tumor bearing BALB/c nude mice, 10 mg/kg po qd, day 3, individual animals, 10 mg/kg) of the same molecule?
Answer: The value was -2.37% and -0.9302% and 5.43% and 6.03% and 0.5102%.

Question: What about the “% Body Weight Change” value (PSN-1 tumor bearing BALB/c nude mice, 10 mg/kg po qd, day 7, individual animals, 10 mg/kg) of the same molecule?
Answer: The value was -1.4218% and -1.395% and 3.167% and 6.03% and 1.531%.

Question: What about the “% Body Weight Change” value (PSN-1 tumor bearing BALB/c nude mice, 10 mg/kg po qd, day 10, individual animals, 10 mg/kg) of the same molecule?
Answer: The value was -4.2654% and -2.7907% and 2.715% and 4.523% and -1.531%.

Question: And the “% Body Weight Change” value (model named above the shown rows, RMC-7977 10 mg/kg po qd, day 0 on study, individual animals)?
Answer: The value was 0%.

Question: What about the “% Body Weight Change” value (model named above the shown rows, RMC-7977 10 mg/kg po qd, day 2 on study, individual animals, 10 mg/kg) of the same molecule?
Answer: The value was 0% (3×) and -0.939% and 4.369% and -0.9302% and -1.887% and 0.9569%.

Question: What about the “% Body Weight Change” value (model named above the shown rows, RMC-7977 10 mg/kg po qd, day 6 on study, individual animals, 10 mg/kg) of the same molecule?
Answer: Its value is 0.4566% and -0.939% and 3.398% and -2.7907% and 3.93% and -1.887% and 0.4444% and 1.435%.

Question: What about the “% Body Weight Change” value (model named above the shown rows, RMC-7977 10 mg/kg po qd, day 9 on study, individual animals, 10 mg/kg) of the same molecule?
Answer: The value was -1.826% and -0.939% and 3.8835% and 2.7907% and 1.747% and 0.9434% and 1.333% and 2.871%.

Question: And the “% Body Weight Change” value (model named above the shown rows, RMC-7977 10 mg/kg po qd, day 13 on study, individual animals, 10 mg/kg)?
Answer: The value was 5.479% and 1.408% and 4.854% and 0.4651% and 1.747% and 0.4717% and 0.4444% and 1.914%.

Question: And the “% Body Weight Change” value (model named above the shown rows, RMC-7977 10 mg/kg po qd, day 16 on study, individual animals, 10 mg/kg)?
Answer: Its value is 3.653% and 0% and 5.825% and 2.326% and 3.493% and 0.4717% and 1.778% and 4.306%.

Question: And the “% Body Weight Change” value (model named above the shown rows, RMC-7977 10 mg/kg po qd, day 20 on study, individual animals, 10 mg/kg)?
Answer: The value was 3.653% and 0.939% and 6.796% and -1.395% and 3.057% and 1.415% and 3.111% and 2.392%.

Question: And the “% Body Weight Change” value (model named above the shown rows, RMC-7977 10 mg/kg po qd, day 23 on study, individual animals, 10 mg/kg)?
Answer: The value was 4.11% and 2.8169% and 8.738% and 1.86% and 0.4367% and 8.491% and 1.778% and 2.871%.

Question: And the “% Body Weight Change” value (model named above the shown rows, RMC-7977 10 mg/kg po qd, day 27 on study, individual animals, 10 mg/kg)?
Answer: Its value is 5.023% and 1.408% and 9.2233% and 0.4651% and 0.8734% and 3.302% and 2.222% and 3.349%.

Question: And the “% Body Weight Change” value (xenograft model named above the shown rows, RMC-7977 10 mg/kg po qd, day 14 on study, individual animals, 10 mg/kg)?
Answer: The value was -2.8436% and 0.9302% and 4.525% and 8.0402% and 4.082%.

Question: And the “% Body Weight Change” value (xenograft model named above the shown rows, RMC-7977 10 mg/kg po qd, day 17 on study, individual animals, 10 mg/kg)?
Answer: Its value is -2.8436% and -0.4651% and 3.167% and 8.0402% and 1.02%.

Question: What about the “% Body Weight Change” value (xenograft model named above the shown rows, RMC-7977 10 mg/kg po qd, day 21 on study, individual animals, 10 mg/kg) of the same molecule?
Answer: The value was -2.8436% and -0.9302% and -18.0995% and 10.5528% and 0.5102%.

Question: What about the “% Body Weight Change” value (xenograft model named above the shown rows, RMC-7977 10 mg/kg po qd, day 24 on study, individual animals, 10 mg/kg) of the same molecule?
Answer: Its value is -0.4739% and 0.4651% and -17.1946% and 7.538% and 1.531%.

Question: What about the “% Body Weight Change” value (xenograft model named above the shown rows, RMC-7977 10 mg/kg po qd, day 28 on study, individual animals, 10 mg/kg) of the same molecule?
Answer: The value was -2.37% and -3.721% and -14.4796% and 9.045% and 2.551%.
